Results are given in words; binding and its absence hold for the method and conditions named. Binding seen in cells or lysates may run through a third protein. A yes stands for co-enrichment or nearness to the bait. Other partners may have been found. Sequences can lack the tags named with a protein.
Biological target: His6-AviTag-MBP-TEV-POLE2 (human) (UniProt P56282)
Test: native holdup (nHU) with mass spectrometry; single point; biotinylated His6-avi-MBP-POLE2 bait on streptavidin resin at 26 μM, His6-avi-MBP as control; Jurkat extract, 4 °C, 2 h; label-free MS of the supernatant; apparent; only the target purified

binding	Binder
binds	DNA excision repair protein ERCC-6-like (ERCC6L), endogenous (protein, UniProt Q2NKX8 1-1250) MEASRRFPEAEALSPEQAAHYLRYVKEAKEATKNGDLEEAFKLFNLAKDIFPNEKVLSRIQKIQEALEELAEQGDDEFTDVCNSGLLLYRELHNQLFEHQKEGIAFLYSLYRDGRKGGILADDMGLGKTVQIIAFLSGMFDASLVNHVLLIMPTNLINTWVKEFIKWTPGMRVKTFHGPSKDERTRNLNRIQQRNGVIITTYQMLINNWQQLSSFRGQEFVWDYVILDEAHKIKTSSTKSAICARAIPASNRLLLTGTPIQNNLQELWSLFDFACQGSLLGTLKTFKMEYENPITRAREKDATPGEKALGFKISENLMAIIKPYFLRRTKEDVQKKKSSNPEARLNEKNPDVDAICEMPSLSRKNDLIIWIRLVPLQEEIYRKFVSLDHIKELLMETRSPLAELGVLKKLCDHPRLLSARACCLLNLGTFSAQDGNEGEDSPDVDHIDQVTDDTLMEESGKMIFLMDLLKRLRDEGHQTLVFSQSRQILNIIERLLKNRHFKTLRIDGTVTHLLEREKRINLFQQNKDYSVFLLTTQVGGVGLTLTAATRVVIFDPSWNPATDAQAVDRVYRIGQKENVVVYRLITCGTVEEKIYRRQVFKDSLIRQTTGEKKNPFRYFSKQELRELFTIEDLQNSVTQLQLQSLHAAQRKSDIKLDEHIAYLQSLGIAGISDHDLMYTCDLSVKEELDVVEESHYIQQRVQKAQFLVEFESQNKEFLMEQQRTRNEGAWLREPVFPSSTKKKCPKLNKPQPQPSPLLSTHHTQEEDISSKMASVVIDDLPKEGEKQDLSSIKVNVTTLQDGKGTGSADSIATLPKGFGSVEELCTNSSLGMEKSFATKNEAVQKETLQEGPKQEALQEDPLESFNYVLSKSTKADIGPNLDQLKDDEILRHCNPWPIISITNESQNAESNVSIIEIADDLSASHSALQDAQASEAKLEEEPSASSPQYACDFNLFLEDSADNRQNFSSQSLEHVEKENSLCGSAPNSRAGFVHSKTCLSWEFSEKDDEPEEVVVKAKIRSKARRIVSDGEDEDDSFKDTSSINPFNTSLFQFSSVKQFDASTPKNDISPPGRFFSSQIPSSVNKSMNSRRSLASRRSLINMVLDHVEDMEERLDDSSEAKGPEDYPEEGVEESSGEASKYTEEDPSGETLSSENKSSWLMTSKPSALAQETSLGAPEPLSGEQLVGSPQDKAAEATNDYETLVKRGKELKECGKIQEALNCLVKALDIKSADPEVMLLTLSLYKQLNNN
binds	AGFG1, endogenous full length (protein, UniProt P52594 1-562) MAASAKRKQEEKHLKMLRDMTGLPHNRKCFDCDQRGPTYVNMTVGSFVCTSCSGSLRGLNPPHRVKSISMTTFTQQEIEFLQKHGNEVCKQIWLGLFDDRSSAIPDFRDPQKVKEFLQEKYEKKRWYVPPEQAKVVASVHASISGSSASSTSSTPEVKPLKSLLGDSAPTLHLNKGTPSQSPVVGRSQGQQQEKKQFDLLSDLGSDIFAAPAPQSTATANFANFAHFNSHAAQNSANADFANFDAFGQSSGSSNFGGFPTASHSPFQPQTTGGSAASVNANFAHFDNFPKSSSADFGTFNTSQSHQTASAVSKVSTNKAGLQTADKYAALANLDNIFSAGQGGDQGSGFGTTGKAPVGSVVSVPSQSSASSDKYAALAELDSVFSSAATSSNAYTSTSNASSNVFGTVPVVASAQTQPASSSVPAPFGATPSTNPFVAAAGPSVASSTNPFQTNARGATAATFGTASMSMPTGFGTPAPYSLPTSFSGSFQQPAFPAQAAFPQQTAFSQQPNGAGFAAFGQTKPVVTPFGQVAAAGVSSNPFMTGAPTGQFPTGSSSTNPFL
binds	SEC23-interacting protein (SEC23IP), endogenous (protein, UniProt Q9Y6Y8 1-1000) MAERKPNGGSGGASTSSSGTNLLFSSSATEFSFNVPFIPVTQASASPASLLLPGEDSTDVGEEDSFLGQTSIHTSAPQTFSYFSQVSSSSDPFGNIGQSPLTTAATSVGQSGFPKPLTALPFTTGSQDVSNAFSPSISKAQPGAPPSSLMGINSYLPSQPSSLPPSYFGNQPQGIPQPGYNPYRHTPGSSRANPYIAPPQLQQCQTPGPPAHPPPSGPPVQMYQMPPGSLPPVPSSVQSPAQQQVPARPGAPSVQVPSPFLLQNQYEPVQPHWFYCKEVEYKQLWMPFSVFDSLNLEEIYNSVQPDPESVVLGTDGGRYDVYLYDRIRKAAYWEEEPAEVRRCTWFYKGDTDSRFIPYTEEFSEKLEAEYKKAVTTNQWHRRLEFPSGETIVMHNPKVIVQFQPSSVPDEWGTTQDGQTRPRVVKRGIDDNLDEIPDGEMPQVDHLVFVVHGIGPVCDLRFRSIIECVDDFRVVSLKLLRTHFKKSLDDGKVSRVEFLPVHWHSSLGGDATGVDRNIKKITLPSIGRFRHFTNETLLDILFYNSPTYCQTIVEKVGMEINHLHALFMSRNPDFKGGVSVAGHSLGSLILFDILSNQKDLNLSKCPGPLAVANGVVKQLHFQEKQMPEEPKLTLDESYDLVVENKEVLTLQETLEALSLSEYFSTFEKEKIDMESLLMCTVDDLKEMGIPLGPRKKIANFVEHKAAKLKKAASEKKAVAATSTKGQEQSAQKTKDMASLPSESNEPKRKLPVGACVSSVCVNYESFEVGAGQVSVAYNSLDFEPEIFFALGSPIAMFLTIRGVDRIDENYSLPTCKGFFNIYHPLDPVAYRLEPMIVPDLDLKAVLIPHHKGRKRLHLELKESLSRMGSDLKQGFISSLKSAWQTLNEFARAHTSSTQLQEELEKVANQIKEEEEKQVVEAEKVVESPDFSKDEDYLGKVGMLNGGRRIDYVLQEKPIESFNEYLFALQSHLCYWESEDTALLLLKEIYRTMNISPEQPQH
binds	EPN2, endogenous full length (protein, UniProt O95208 1-641) MTTSSIRRQMKNIVNNYSEAEIKVREATSNDPWGPSSSLMTEIADLTYNVVAFSEIMSMVWKRLNDHGKNWRHVYKALTLLDYLIKTGSERVAQQCRENIFAIQTLKDFQYIDRDGKDQGINVREKSKQLVALLKDEERLKAERAQALKTKERMAQVATGMGSNQITFGRGSSQPNLSTSHSEQEYGKAGGSPASYHGSPEASLCPQHRTGAPLGQSEELQPLSQRHPFLPHLGLASRPNGDWSQPCLTCDRAARATSPRVSSELEQARPQTSGEEELQLQLALAMSREVAEQEERLRRGDDLRLQMALEESRRDTVKIPKKKEHGSLPQQTTLLDLMDALPSSGPAAQKAEPWGPSASTNQTNPWGGPAAPASTSDPWPSFGTKPAASIDPWGVPTGATVQSVPKNSDPWAASQQPASSAGKRASDAWGAVSTTKPVSVSGSFELFSNLNGTIKDDFSEFDNLRTSKKTAESVTSLPSQNNGTTSPDPFESQPLTVASSKPSSARKTPESFLGPNAALVNLDSLVTRPAPPAQSLNPFLAPGAPATSAPVNPFQVNQPQPLTLNQLRGSPVLGTSTSFGPGPGVESMAVASMTSAAPQPALGATGSSLTPLGPAMMNMVGSVGIPPSAAQATGTTNPFLL
binds	SSBP2, endogenous (protein, UniProt P81877 1-361) MYGKGKSNSSAVPSDSQAREKLALYVYEYLLHVGAQKSAQTFLSEIRWEKNITLGEPPGFLHSWWCVFWDLYCAAPERRETCEHSSEAKAFHDYSAAAAPSPVLGNIPPGDGMPVGPVPPGFFQPFMSPRYPGGPRPPLRIPNQALGGVPGSQPLLPSGMDPTRQQGHPNMGGPMQRMTPPRGMVPLGPQNYGGAMRPPLNALGGPGMPGMNMGPGGGRPWPNPTNANSIPYSSASPGNYVGPPGGGGPPGTPIMPSPADSTNSGDNMYTLMNAVPPGPNRPNFPMGPGSDGPMGGLGGMESHHMNGSLGSGDMDSISKNSPNNMSLSNQPGTPRDDGEMGGNFLNPFQSESYSPSMTMSV
binds	NUMB, endogenous full length (protein, UniProt P49757 1-651) MNKLRQSFRRKKDVYVPEASRPHQWQTDEEGVRTGKCSFPVKYLGHVEVDESRGMHICEDAVKRLKAERKFFKGFFGKTGKKAVKAVLWVSADGLRVVDEKTKDLIVDQTIEKVSFCAPDRNFDRAFSYICRDGTTRRWICHCFMAVKDTGERLSHAVGCAFAACLERKQKREKECGVTATFDASRTTFTREGSFRVTTATEQAEREEIMKQMQDAKKAETDKIVVGSSVAPGNTAPSPSSPTSPTSDATTSLEMNNPHAIPRRHAPIEQLARQGSFRGFPALSQKMSPFKRQLSLRINELPSTMQRKTDFPIKNAVPEVEGEAESISSLCSQITNAFSTPEDPFSSAPMTKPVTVVAPQSPTFQANGTDSAFHVLAKPAHTALAPVAMPVRETNPWAHAPDAANKEIAATCSGTEWGQSSGAASPGLFQAGHRRTPSEADRWLEEVSKSVRAQQPQASAAPLQPVLQPPPPTAISQPASPFQGNAFLTSQPVPVGVVPALQPAFVPAQSYPVANGMPYPAPNVPVVGITPSQMVANVFGTAGHPQAAHPHQSPSLVRQQTFPHYEASSATTSPFFKPPAQHLNGSAAFNGVDDGRLASADRHTEVPTGTCPVDPFEAQWAALENKSKQRTNPSPTNPFSSDLQKTFEIEL
